Laboratory results published in the supplement of paper PMC3334620.
Whole data set: some 33,000 sequences, median “E-score (-0.5 to 0.5)” near -0.0059, cut for the highest 2% near 0.26. The list shows a part of the results.

What follows are sequences tested against T1, Cin5 (UniProt P40917) (assay: PBM E-score (8-mer binding enrichment) (E-score (-0.5 to 0.5)); higher = stronger / more preferred TF binding). Conditions: protein concentration: 100 nM; construct: GST-full length.
T1 sequence: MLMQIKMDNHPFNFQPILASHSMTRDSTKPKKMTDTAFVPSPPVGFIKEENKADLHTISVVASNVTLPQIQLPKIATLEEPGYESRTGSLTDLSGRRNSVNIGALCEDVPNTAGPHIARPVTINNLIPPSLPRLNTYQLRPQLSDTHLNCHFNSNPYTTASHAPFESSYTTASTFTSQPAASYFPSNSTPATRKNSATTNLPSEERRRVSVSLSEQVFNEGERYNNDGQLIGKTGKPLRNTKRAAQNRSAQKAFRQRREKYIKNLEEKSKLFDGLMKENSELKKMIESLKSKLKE
Experimental: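 Universal 'all 10-mer' protein binding microarrays (Agilent AMADID 015681) probed with GST-tagged S. cerevisiae TFs (full-length or DBD) made by in vitro transcription/translation (PURExpress), about 100-200 nM. Bound TF was detected with fluorescent anti-GST. Each ungapped 8-mer (which stands for itself and its reverse complement) is scored by the PBM enrichment score (E-score), a modified Wilcoxon-Mann-Whitney statistic from -0.5 to +0.5, computed with the Universal PBM Analysis Suite. Scale: above 0.35 generally sequence-specific binding.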

Sequence	PBM E-score
ATCTGGAA	0.11
AGTTACAA	0.194
ATAGTAAT	0.358
AGACCAGG	-0.122
CGTCCTAC	0.0176
TCCTTACA	-0.021
CACATTGG	0.0453
CGGCTGAA	-0.0649
ATCAATCA	0.102
CCGTGTGC	-0.104
ATCTGGAG	-0.16
TAGGTTGA	0.0376
CCTTCGGC	-0.33
GCAAGACC	-0.0795
CGCAGCCC	-0.0915
GGACAGCC	-0.0835
GGCCGACA	-0.221
AGCGGCCG	-0.124
CGGCTTCC	-0.0384
AACCCTCA	-0.0866
GCGCTAGC	-0.257
ACTGAACT	0.114
AGGCTGCA	-0.211
GACCTATA	0.166

Sequence	PBM E-score
CCGGCTAG	-0.312
GGCCACCC	-0.14
CAGGTTGC	0.0356
GTGTATTA	0.273
GGGAGAAA	-0.14
AGTGCACT	0.00945
AAACCGGC	0.0295
GCTTGCAC	-0.153
CCTATCAC	-0.00415
CGAGACGA	-0.172
GGCGCCCC	-0.181
ATTAGGCA	0.0131
AGGAATAT	0.162
TGCTGAAA	-0.166
AGCGCATC	-0.00729
CATCGCGG	0.00796
ATGCCATG	0.0486
TACAGGTA	0.116
CTGTCTCC	-0.0856
ACGCTCCT	-0.121
AAATCACT	0.141
AACGACGG	0.0702
CCACATTA	0.11
ACGGAGGA	-0.131

Some of the entries so far, with each value named:
CTGTCTCC
  PBM E-score = -0.0856
ACGCTCCT
  PBM E-score = -0.121

The list continues.

Sequence	PBM E-score
CGCGAGTA	0.21
CCTCGGGC	-0.151
CATTGTGA	0.159
CTCCCCCA	-0.387
CCAGGGGC	-0.283
CTCACCTC	0.112
AGGCGCTC	-0.263
GATGACAA	0.27
AAACTGTG	0.0317
GGCCTCAC	-0.0663
ATATGCGA	0.151
ATCTGCTG	-0.0633
GCGAACAC	-0.00885
TAACTCAA	0.106
CCTTGCAG	-0.283
ATAAGAAT	0.224
ATACGACA	0.127
ACCAGTAA	0.0991
ACATTACA	0.105
AGCAACGC	-0.0248
AAAGGCCA	-0.142
CTGGAAGC	-0.24
CATAGAGC	-0.148
AATGCACC	-0.109

Some of the entries so far, with bars between the fields:
Sequence | PBM E-score
CGTCCTAC | 0.0176
CAGGTTGC | 0.0356
AAACCGGC | 0.0295
GATGACAA | 0.27

Remaining list, next part

Sequence	PBM E-score
AAAGCTAT	-0.00422
AATTAACC	0.143
TGCTTGAA	0.0612
ACCCGGTA	0.0389
GAACGCCA	-0.0604
CCTCTTGC	-0.166
GAGGTTCC	-0.146
CTGGGTTA	-0.0908
CTGAGGTC	-0.127
CAAGTGAC	0.078
GATCCATA	0.0427
ACTGACTC	-0.0414
CACTCCAG	-0.00782
ACAGCAGC	0.00839
CAGCTGAG	0.0214
CGAGTCAG	-0.126
CTATACCA	0.0886
GGACGTAC	-0.034
AGTAGTAT	0.165
AACTTGAT	0.174
GAAGTAAA	0.0647
CTAGGCGC	-0.0829
